Measured values reported in article PMC4438057.
These are yes or no findings as the source states them, for the method shown. In cells and extracts the contact can be indirect. Some binding calls cover weakened binding; strength is not graded here.

Chains of the proteins cited; added tags and fusions are not shown. Lines headed by an entry give the natural chain unless they say otherwise; changes in a name come on top.
UniProt Q9Y4G2: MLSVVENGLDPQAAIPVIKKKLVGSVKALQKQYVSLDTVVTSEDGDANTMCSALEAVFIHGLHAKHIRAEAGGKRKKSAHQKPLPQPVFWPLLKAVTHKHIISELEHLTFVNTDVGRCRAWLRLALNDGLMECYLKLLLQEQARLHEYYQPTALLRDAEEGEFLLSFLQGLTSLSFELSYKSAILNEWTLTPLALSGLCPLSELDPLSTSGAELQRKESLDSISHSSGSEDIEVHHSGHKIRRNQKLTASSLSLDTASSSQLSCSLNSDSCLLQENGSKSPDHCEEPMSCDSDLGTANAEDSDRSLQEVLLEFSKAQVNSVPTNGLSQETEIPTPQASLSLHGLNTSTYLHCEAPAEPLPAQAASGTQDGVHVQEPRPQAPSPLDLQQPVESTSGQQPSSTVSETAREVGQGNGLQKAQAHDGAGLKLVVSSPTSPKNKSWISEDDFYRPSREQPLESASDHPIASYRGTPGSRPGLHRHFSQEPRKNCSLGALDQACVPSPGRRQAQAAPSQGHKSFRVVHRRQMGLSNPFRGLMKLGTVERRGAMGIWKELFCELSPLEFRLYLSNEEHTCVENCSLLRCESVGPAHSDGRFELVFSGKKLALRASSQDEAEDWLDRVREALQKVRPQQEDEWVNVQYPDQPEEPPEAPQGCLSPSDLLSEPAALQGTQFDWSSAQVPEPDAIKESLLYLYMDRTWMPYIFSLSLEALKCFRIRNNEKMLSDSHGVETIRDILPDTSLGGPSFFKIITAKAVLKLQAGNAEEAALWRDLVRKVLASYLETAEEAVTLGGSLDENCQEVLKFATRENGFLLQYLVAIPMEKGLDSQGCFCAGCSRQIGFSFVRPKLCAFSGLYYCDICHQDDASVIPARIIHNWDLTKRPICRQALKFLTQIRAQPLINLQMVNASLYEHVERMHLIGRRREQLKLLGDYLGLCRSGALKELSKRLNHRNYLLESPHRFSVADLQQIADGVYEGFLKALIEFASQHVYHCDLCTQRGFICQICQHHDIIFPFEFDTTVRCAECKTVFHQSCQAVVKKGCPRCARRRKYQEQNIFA
UniProt O14545: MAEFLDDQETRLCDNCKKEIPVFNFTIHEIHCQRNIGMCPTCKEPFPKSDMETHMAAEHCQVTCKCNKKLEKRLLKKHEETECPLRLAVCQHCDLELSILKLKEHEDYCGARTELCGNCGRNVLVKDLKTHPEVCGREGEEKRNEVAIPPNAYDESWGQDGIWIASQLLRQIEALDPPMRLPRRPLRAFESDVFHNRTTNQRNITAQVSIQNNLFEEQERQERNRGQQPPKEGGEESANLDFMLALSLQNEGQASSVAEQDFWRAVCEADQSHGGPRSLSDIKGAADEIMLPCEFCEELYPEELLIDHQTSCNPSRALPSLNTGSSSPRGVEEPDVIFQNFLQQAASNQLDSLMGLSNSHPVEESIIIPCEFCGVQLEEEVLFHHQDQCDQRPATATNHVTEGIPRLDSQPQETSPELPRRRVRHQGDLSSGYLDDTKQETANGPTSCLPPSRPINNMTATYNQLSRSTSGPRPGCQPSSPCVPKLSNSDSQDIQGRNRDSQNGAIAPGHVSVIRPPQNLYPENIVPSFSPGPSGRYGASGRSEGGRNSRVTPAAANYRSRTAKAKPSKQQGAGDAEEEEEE

Legend:
[1] = target: TAP-tagged full-length human Plekhm1 (human) (UniProt Q9Y4G2); test: pull-down; HEK293T cells co-transfected with TAP-Plekhm1 and TRAFD1-FLAG constructs; lysate (50 mM Hepes-KOH pH 8.0, 100 mM KCl, 2 mM EDTA, 0.1% Nonidet-40, 10% glycerol) pulled down with Streptavidin Sepharose, 2 h, 4°C; blot with anti-FLAG
[2] = target: C-terminally FLAG-tagged full-length TRAFD1 (human) (UniProt O14545); test: co-IP; HEK293 cells with FLAG-tagged full-length TRAFD1 and TAP-tagged Plekhm1 constructs; lysate (50 mM Tris HCl pH 7.4, 150 mM NaCl, 5 mM MgCl2, 0.5% Triton-X-100) precipitated with FLAG-M2 gel, 2 h, 4°C; blot with anti-HA

Substance	binding [1]	binding [2]
C-terminally FLAG-tagged full-length TRAFD1 (from UniProt O14545 1-582)	binds	
TRAFD1 N-terminal deletion mutant (aa Δ1–37), FLAG-tagged (from UniProt O14545 38-582) (domain or fragment)	binds	
TAP-tagged Plekhm1 C-terminal region (778–986 aa) (from UniProt Q9Y4G2 778-986) (domain or fragment)		binds
TAP-tagged full-length human Plekhm1 (from UniProt Q9Y4G2 1-1056)		binds
